Experimental data as given in doi:10.1101/506469.
No constants are given. Whether binding was seen depends on the method and setting. Some binding calls cover weakened binding; strength is not graded here.

The chains behind the UniProt entries cited, without tags or fusion partners. Where a name states a change or a piece, a line headed by the entry shows the natural chain unless it says otherwise. A line that says so, or that is headed by a name, gives the form on record, which may keep a tag or linker.
human Nup98FG (aa. 214-480) (P52948, form named): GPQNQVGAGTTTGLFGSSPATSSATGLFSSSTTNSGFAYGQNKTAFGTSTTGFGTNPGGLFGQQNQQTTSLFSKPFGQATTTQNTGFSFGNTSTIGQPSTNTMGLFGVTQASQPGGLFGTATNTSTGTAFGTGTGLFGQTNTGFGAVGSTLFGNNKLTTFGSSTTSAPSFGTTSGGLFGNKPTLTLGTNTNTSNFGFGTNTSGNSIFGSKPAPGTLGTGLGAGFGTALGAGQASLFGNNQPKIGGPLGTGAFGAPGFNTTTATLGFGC

Biological target: T1, human Nup35N (aa. 1-160) (human) (UniProt Q8NFH5)
T1 sequence (chain, ATTO dye (ATTO390, 488 or 610) by maleimide on the added C-terminal cysteine): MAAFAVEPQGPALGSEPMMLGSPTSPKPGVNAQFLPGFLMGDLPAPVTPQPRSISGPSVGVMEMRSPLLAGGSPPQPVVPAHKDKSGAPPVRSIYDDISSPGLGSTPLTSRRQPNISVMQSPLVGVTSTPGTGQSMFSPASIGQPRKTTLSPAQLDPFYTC
Assay: in vitro self-assembled particle assay

human Nup98FG (aa. 214-480) (from UniProt P52948 214-480) (domain or fragment)
binding: binds
